Measurements reported in patent EP3939964B1, “COMBINATIONS FOR INHIBITING NHE-MEDIATED ANTIPORT IN THE TREATMENT OF DISORDERS ASSOCIATED WITH FLUID RETENTION OR SALT OVERLOAD AND GASTROINTESTINAL TRACT DISORDERS” (dated 2026).

Assays:
[1] = tested on: Normal female Sprague Dawley rats; assay: Pharmacodynamic model: effect of test compounds on fecal water content; settings: one way ANOVA with Dunnett post tests, control vs treated
[2] = Determination of compound remaining in feces; settings: oral 0.1 mg/kg, three rats

recovery in 72-hour fecal samples (summary in words) [2] | SMILES | Significant? [1]
 | CN1Cc2c(Cl)cc(Cl)cc2C(c2cccc(S(=O)(=O)NCCOCCOCCNC(=O)Nc3ccc(NC(=O)NCCOCCOCCNS(=O)(=O)c4cccc(C5CN(C)Cc6c(Cl)cc(Cl)cc65)c4)cc3)c2)C1 (stereo not shown) | Y (Results are significant if p < 0.05)
near quantitative recovery | CN1Cc2c(Cl)cc(Cl)cc2C(c2cccc(S(=O)(=O)NCCOCCOCCNC(=O)Nc3ccc(NC(=O)NCCOCCOCCNS(=O)(=O)c4cccc(C5CN(C)Cc6c(Cl)cc(Cl)cc65)c4)cc3)c2)C1 (single isomer, unassigned) | Y (Results are significant if p < 0.05)
 | CN1Cc2c(Cl)cc(Cl)cc2C(c2ccc(S(=O)(=O)NCCOCCOCCNC(=O)Nc3ccc(NC(=O)NCCOCCOCCNS(=O)(=O)c4ccc(C5CN(C)Cc6c(Cl)cc(Cl)cc65)cc4)cc3)cc2)C1 (stereo not shown) | Y (Results are significant if p < 0.05)

The match of structure and compound is tentative.
